PubChem BioAssay AID720505, Drosophila RNAi Screening Center | 2013
The screen tested about 20,000 reagents; below is a random part of those that have a named target and a result. In the full data, about 2,100 (10%) got an active call. 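Raw plate signals without normalisation; calls rest on control-based scores that were not deposited; replicate 2 separates called from uncalled poorly.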 A number with no mark means an inactive call. Names joined by + are all predicted targets of the reagent. No sequences are given here. The record does not give: the amount of reagent, the time to read-out.

- Screen: 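Knock-downs that reduce calcium influx once internal stores are emptied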 (primary screen)
- System: Drosophila S2R+ cells
- Reagents: long dsRNA against Drosophila genes
- Challenge: thapsigargin (2 µM) in calcium-free buffer to empty internal stores, then 2 mM calcium added back
- Measured: 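Fluo-4 signal in 384-well plates read on a FLIPR after thapsigargin (2 µM, calcium-free) store depletion and 2 mM calcium add-back; unnormalised mean endpoint per well; screen run twice, selected wells retested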
- Reading the numbers: calcium signal: higher = more calcium entry after store depletion
- Rule for the call: 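About 1500 genes called as lowering calcium entry, by varying amounts, judged against per-plate control wells with STIM1 as positive and Rho1 as negative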
- Meaning of the calls: active = called as lowering calcium entry; inactive = not called

The opening 2 entries, ahead of the listing:
no.	Gene	DRSC id	calcium signal, replicate 1	calcium signal, replicate 2
1	vtd (verthandi)	DRSC20839	182	83.9
2	ppk15 (pickpocket 15)	DRSC14733	268	127

Results, from the first entry:
no.	Gene	DRSC id	calcium signal, replicate 1	calcium signal, replicate 2
1	vtd (verthandi)	DRSC20839	182	83.9
2	ppk15 (pickpocket 15)	DRSC14733	268	127
3	St3 (Sulfotransferase 3)	DRSC04098	87.5	147
4	St3 (Sulfotransferase 3)	DRSC04505	146	104
5	Or43a (Odorant receptor 43a)	DRSC07485	108	109
6	Rop (Ras opposite)	DRSC08693	112	80.8
7	r2d2	DRSC03014	99.5	178
8	Ccp84Ac	DRSC12588	99	181
9	thoc7	DRSC08512	135	128
10	CG12923	DRSC06237	78.3	92.5
11	Polr1D + DCTN6-p27	DRSC02094	192	73.5
12	PH4alphaNE2 (prolyl-4-hydroxylase-alpha NE2)	DRSC16544	138	143
13	CG6012	DRSC02921	76.5	138
14	Cht7 (Chitinase 7)	DRSC08538	62.8 (active)	96.9
15	Cht7 (Chitinase 7)	DRSC21783	138	128
16	CG32206	DRSC09602	8417	167
17	CG32206	DRSC10094	81.8	134
18	CG32206	DRSC10095	91.7	147
19	CG32206	DRSC10096	103	101
20	CG32206	DRSC11080	117 (active)	78.1
21	gt (giant)	DRSC18782	100	113
22	gt (giant)	DRSC23119	111	141
23	GstE13 (Glutathione S transferase E13)	DRSC06083	180	149
24	cm + Inx7	DRSC18753	121	94.8
25	Cpsf160 (Cleavage and polyadenylation specificity factor 160)	DRSC05968	153	145
26	Cpr11B (Cuticular protein 11B)	DRSC19859	132	120
27	Sam-S (S-adenosylmethionine Synthetase)	DRSC00758	97.6	122
28	CG8641	DRSC11028	138	89.1
29	CG10164	DRSC14197	105	149
30	CG7653	DRSC01886	139	115
31	CG3588	DRSC18473	96.3	123
32	Saf-B (Scaffold attachment factor B)	DRSC16167	167	252
33	NitFhit (Nitrilase and fragile histidine triad fusion protein)	DRSC08680	91.6	154
34	CG5773	DRSC06955	119	138
